Reference: publication PMC3395716
These are yes or no findings as the source states them, for the method shown. Binding seen in cells or lysates may run through a third protein. Some binding calls cover weakened binding; strength is not graded here.

Protein sequences, listed by entry. Tags and fused reporters are not part of them.
UniProt P19793: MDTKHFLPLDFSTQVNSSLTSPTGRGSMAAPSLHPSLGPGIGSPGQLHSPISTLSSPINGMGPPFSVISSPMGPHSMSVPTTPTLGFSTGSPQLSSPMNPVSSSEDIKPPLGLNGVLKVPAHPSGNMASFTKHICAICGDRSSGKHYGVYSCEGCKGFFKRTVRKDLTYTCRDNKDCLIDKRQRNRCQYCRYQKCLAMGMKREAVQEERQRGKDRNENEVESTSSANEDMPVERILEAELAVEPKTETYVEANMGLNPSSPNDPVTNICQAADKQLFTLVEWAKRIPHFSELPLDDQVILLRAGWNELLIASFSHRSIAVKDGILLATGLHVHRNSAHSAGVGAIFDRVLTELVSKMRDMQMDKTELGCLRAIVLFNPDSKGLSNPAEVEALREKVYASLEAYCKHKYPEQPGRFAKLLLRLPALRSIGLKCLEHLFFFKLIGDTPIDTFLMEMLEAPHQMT
UniProt P42224: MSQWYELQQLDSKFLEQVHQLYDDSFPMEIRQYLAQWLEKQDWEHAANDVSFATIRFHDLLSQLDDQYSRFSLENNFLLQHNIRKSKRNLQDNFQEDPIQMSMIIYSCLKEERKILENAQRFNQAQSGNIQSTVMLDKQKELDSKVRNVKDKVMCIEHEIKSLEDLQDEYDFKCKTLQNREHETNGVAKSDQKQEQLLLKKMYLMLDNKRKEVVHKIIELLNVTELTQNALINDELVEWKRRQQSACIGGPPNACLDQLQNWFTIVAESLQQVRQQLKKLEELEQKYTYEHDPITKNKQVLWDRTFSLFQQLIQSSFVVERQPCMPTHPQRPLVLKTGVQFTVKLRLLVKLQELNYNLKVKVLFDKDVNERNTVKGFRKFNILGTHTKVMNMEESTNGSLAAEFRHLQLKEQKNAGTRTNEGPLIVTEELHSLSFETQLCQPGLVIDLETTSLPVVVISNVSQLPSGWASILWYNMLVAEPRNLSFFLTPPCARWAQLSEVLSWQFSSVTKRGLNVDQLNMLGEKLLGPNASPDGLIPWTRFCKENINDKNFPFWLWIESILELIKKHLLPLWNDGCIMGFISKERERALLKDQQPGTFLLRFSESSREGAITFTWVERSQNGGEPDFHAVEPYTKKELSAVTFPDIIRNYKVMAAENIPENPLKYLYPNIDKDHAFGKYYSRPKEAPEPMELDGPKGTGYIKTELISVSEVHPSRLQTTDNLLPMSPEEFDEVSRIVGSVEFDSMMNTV

How the values were obtained:
[1] = target: RXRα (overexpressed in HEK-293T cells) (UniProt P19793); experiment: co-IP; cellular extracts of HEK-293T cells transfected with STAT1 and RXRα expression vectors; anti-RXRα (or anti-STAT1) antibodies 16 h at 4°C, protein A/G Sepharose beads 1 h at 4°C; Western blotting with rabbit anti-STAT1
GST-RXRα fusion protein = GST-RXRα fusion protein (UniProt P19793); experiment: pull-down; GST-RXRα (or GST) immobilised on glutathione-agarose beads, incubated with whole cell extracts of STAT1-overexpressing RAW 264.7 cells in Interaction Buffer (20 mM Hepes, 5 mM MgCl2, 0.2% NP40, 0.2% BSA, 7.5% glycerol, protease inhibitors) for 16 h at 4°C; washed with 100 mM KCl, 20 mM Hepes pH 7.9, 5 mM MgCl2, 0.2% NP40; Western blotting with anti-STAT1; only the target purified

Substance	binding [1]	binding (GST-RXRα fusion protein)
STAT1 (overexpressed in HEK-293T cells) (from UniProt P42224 1-750)	binds	
STAT1 (overexpressed in RAW 264.7 macrophages) (from UniProt P42224 1-750)		binds
